Data taken from PubChem BioAssay AID504749, deposited by NCATS (2011).

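Malaria parasite (P. falciparum) lines kept in red blood cells; parasite DNA is measured by SYBR Green fluorescence after lysis, 72 h after compound addition.
Each compound was titrated across a series from about 0.000037 to 29 µM.
The number is the fitted AC50, the concentration giving a half-maximal change in signal; a lower value means higher potency, whether the curve shows a decrease or an increase.
Calls follow the curve class and fit quality: every row here is inconclusive, covering signal-raising curves and weak, poorly fitted, partial or highest-dose-only inhibition curves.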

Values are in µM.
Every entry below has the call inconclusive.
These entries are mostly ones the record files as inconclusive; other results of the assay are not listed here.
A potency from a partial, single-point or poor curve is only a rough figure.

| Compound | setting | fitted potency (µM) | curve |
|---|---|---|---|
| `C[C@]12CC[C@@H]3c4ccc(O)cc4CC[C@H]3[C@@H]1CCC2OC(=O)CCC1CCCC1` (stereo partly specified) | P93_24 | 17.78 | inhibitor, single point |
| `C[C@]12CC[C@@H]3c4ccc(O)cc4CC[C@H]3[C@@H]1CCC2OC(=O)CCC1CCCC1` (stereo partly specified) | Dd2 | 10 | inhibitor, single point |
| `C[C@]12CC[C@@H]3c4ccc(O)cc4CC[C@H]3[C@@H]1CCC2OC(=O)CCC1CCCC1` (stereo partly specified) | CP335 | 19.01 | inhibitor, single point |
| `C[C@]12CC[C@@H]3c4ccc(O)cc4CC[C@H]3[C@@H]1CCC2OC(=O)CCC1CCCC1` (stereo partly specified) | CP237 | 14.13 | inhibitor, single point |
| `C[C@]12CC[C@@H]3c4ccc(O)cc4CC[C@H]3[C@@H]1CCC2OC(=O)CCC1CCCC1` (stereo partly specified) | CP286 | 17.78 | inhibitor, single point |
| `O=C(CN1CCN(Cc2ccc3c(c2)OCO3)CC1)N1c2ccccc2Sc2ccccc21` | DIV17 | 7.569 | inhibitor, partial curve |
| `O=C(CN1CCN(Cc2ccc3c(c2)OCO3)CC1)N1c2ccccc2Sc2ccccc21` | TAB113 | 12.59 | inhibitor, partial curve, poor fit |
| `O=C(CN1CCN(Cc2ccc3c(c2)OCO3)CC1)N1c2ccccc2Sc2ccccc21` | SC27B | 10 | inhibitor, single point |
| `O=C(CN1CCN(Cc2ccc3c(c2)OCO3)CC1)N1c2ccccc2Sc2ccccc21` | CP252 | 10 | inhibitor, single point |
| `O=C(CN1CCN(Cc2ccc3c(c2)OCO3)CC1)N1c2ccccc2Sc2ccccc21` | CP268 | 13.46 | inhibitor, partial curve, poor fit |
| `O=C(CN1CCN(Cc2ccc3c(c2)OCO3)CC1)N1c2ccccc2Sc2ccccc21` | CP247 | 7.943 | inhibitor, partial curve, poor fit |
| `O=C(CN1CCN(Cc2ccc3c(c2)OCO3)CC1)N1c2ccccc2Sc2ccccc21` | PC15 | 10 | inhibitor, single point |
| `O=C(CN1CCN(Cc2ccc3c(c2)OCO3)CC1)N1c2ccccc2Sc2ccccc21` | CP325 | 12 | inhibitor, partial curve |
| `O=C(CN1CCN(Cc2ccc3c(c2)OCO3)CC1)N1c2ccccc2Sc2ccccc21` | CP262 | 19.01 | inhibitor, single point |
| `O=C(CN1CCN(Cc2ccc3c(c2)OCO3)CC1)N1c2ccccc2Sc2ccccc21` | CP335 | 13.46 | inhibitor, single point |
| `O=C(CN1CCN(Cc2ccc3c(c2)OCO3)CC1)N1c2ccccc2Sc2ccccc21` | CP291 | 15.1 | inhibitor, single point |
| `O=C(CN1CCN(Cc2ccc3c(c2)OCO3)CC1)N1c2ccccc2Sc2ccccc21` | CP250 | 10 | inhibitor, single point |
| `O=C(CN1CCN(Cc2ccc3c(c2)OCO3)CC1)N1c2ccccc2Sc2ccccc21` | DFO2036 | 10 | inhibitor, single point |
| `O=C(CN1CCN(Cc2ccc3c(c2)OCO3)CC1)N1c2ccccc2Sc2ccccc21` | HB3 | 10 | inhibitor, single point |
| `O=C(CN1CCN(Cc2ccc3c(c2)OCO3)CC1)N1c2ccccc2Sc2ccccc21` | CP305 | 9.528 | inhibitor, partial curve |
| `O=C(CN1CCN(Cc2ccc3c(c2)OCO3)CC1)N1c2ccccc2Sc2ccccc21` | CP238 | 11.22 | inhibitor, single point |
| `O=C(CN1CCN(Cc2ccc3c(c2)OCO3)CC1)N1c2ccccc2Sc2ccccc21` | DIV30 | 0.4775 | inhibitor, full curve, poor fit |
| `O=C(CN1CCN(Cc2ccc3c(c2)OCO3)CC1)N1c2ccccc2Sc2ccccc21` | CP329 | 16.94 | inhibitor, single point |
| `O=C(CN1CCN(Cc2ccc3c(c2)OCO3)CC1)N1c2ccccc2Sc2ccccc21` | CP256 | 10 | inhibitor, single point |
| `O=C(CN1CCN(Cc2ccc3c(c2)OCO3)CC1)N1c2ccccc2Sc2ccccc21` | CP297 | 8.492 | inhibitor, partial curve |
| `O=C(CN1CCN(Cc2ccc3c(c2)OCO3)CC1)N1c2ccccc2Sc2ccccc21` | CP315 | 19.01 | inhibitor, single point |
| `O=C(CN1CCN(Cc2ccc3c(c2)OCO3)CC1)N1c2ccccc2Sc2ccccc21` | PC26 | 12 | inhibitor, single point |
| `O=C(CN1CCN(Cc2ccc3c(c2)OCO3)CC1)N1c2ccccc2Sc2ccccc21` | CP237 | 11.22 | inhibitor, single point |
| `O=C(CN1CCN(Cc2ccc3c(c2)OCO3)CC1)N1c2ccccc2Sc2ccccc21` | N140 | 10 | inhibitor, single point |
| `O=C(CN1CCN(Cc2ccc3c(c2)OCO3)CC1)N1c2ccccc2Sc2ccccc21` | CP269 | 12 | inhibitor, partial curve |
| `O=C(CN1CCN(Cc2ccc3c(c2)OCO3)CC1)N1c2ccccc2Sc2ccccc21` | ECU | 15.85 | inhibitor, single point |
| `Cc1cccc(C)c1OCC(=O)N[C@@H](Cc1ccccc1)[C@@H](O)C[C@H](Cc1ccccc1)NC(=O)[C@H](C(C)C)N1CCCNC1=O` | CP266 | 10.69 | inhibitor, partial curve, poor fit |
| `Cc1ccc(C(=O)C(C)CN2CCCCC2)cc1` (stereo unspecified) | P93_24 | 17.78 | inhibitor, single point |
| `Cc1ccc(C(=O)C(C)CN2CCCCC2)cc1` (stereo unspecified) | CP335 | 19.01 | inhibitor, single point |
| `Cc1ccc(C(=O)C(C)CN2CCCCC2)cc1` (stereo unspecified) | PC26 | 13.46 | inhibitor, single point |
| `Cc1ccc(C(=O)C(C)CN2CCCCC2)cc1` (stereo unspecified) | DIV30 | 15.1 | inhibitor, partial curve, poor fit |
| `Cc1ccc(C(=O)C(C)CN2CCCCC2)cc1` (stereo unspecified) | TAB165 | 17.78 | inhibitor, single point |
| `Cc1ccc(C(=O)C(C)CN2CCCCC2)cc1` (stereo unspecified) | TAB113 | 10 | inhibitor, single point |

3 of the entries, repeated:

Compound	setting	fitted potency (µM)	curve
C[C@]12CC[C@@H]3c4ccc(O)cc4CC[C@H]3[C@@H]1CCC2OC(=O)CCC1CCCC1 (stereo partly specified)	CP237	14.13	inhibitor, single point
C[C@]12CC[C@@H]3c4ccc(O)cc4CC[C@H]3[C@@H]1CCC2OC(=O)CCC1CCCC1 (stereo partly specified)	P93_24	17.78	inhibitor, single point
C[C@]12CC[C@@H]3c4ccc(O)cc4CC[C@H]3[C@@H]1CCC2OC(=O)CCC1CCCC1 (stereo partly specified)	CP335	19.01	inhibitor, single point